The campaign covered roughly 400,000 compounds. About 13,000 (3.2%) were called active. The shares of active, inactive and inconclusive entries below differ from those in the screen. Calls come from the whole dose curve; as a rule, active = well fitted cell-killing curve with a large enough effect; inconclusive = small, poorly fitted or top-dose-only effect, or effect the other way; inactive = flat fitted curve, though single readings scatter. Potencies of inconclusive entries are doubtful fits and often do not repeat.
Assay: qHTS assay for MDR1-selective chemotherapeutics: Primary screen using the drug-selected MDR subline cells KB-V1; note: nearly all actives have a fitted effect of over 60% in size
Conditions: KB-V1 MDR cells viability, CellTiter-Glo, 72 h; series mostly up to 46.1 µM
In short: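 In this primary screen, KB-V1 cells overexpressing P-gp are incubated with library compounds (lowest to highest concentration) for 72 h at 37 degrees C before a luminescent ATP viability read.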
Potency is the fitted concentration of half-maximal effect.

With `Cc1noc(C)c1C(=O)OC(C)C(=O)Nc1ccc([N+](=O)[O-])cc1C(F)(F)F` (stereo not drawn) as the compound, how does the Potency read?
The Potency was “inactive”.

Which Potency does the source give for `CC1=C(C(=O)N2CCCCCC2)CC(CC(=O)NCC2CCCCC2)C(=O)N1Cc1ccc(F)cc1` (stereo not drawn) here?
The Potency was inconclusive: 5.8 µM [cytotoxic, partial curve].

For `CC(C)C(=O)N1CCN(c2ccc(NC(=O)c3ccc([N+](=O)[O-])o3)cc2)CC1`, which Potency is on record?
Its Potency is inconclusive: 18.4 µM [cytotoxic, single point].

With `O=C(COc1ccc([N+](=O)[O-])cc1Cl)Nn1cnnc1` as the compound, how does the Potency read?
The Potency was inconclusive: 23.1 µM [rising, single point].

With `Cc1ccccc1NC(=O)Cc1nc(COC(=O)c2ccc(Cl)c(S(N)(=O)=O)c2)cs1` as the compound, how does the Potency read?
The Potency was “inactive”.

Which Potency does the source give for `COc1ccc(-n2nc(C(=O)Nc3ccc(Cl)cn3)c3c4ccccc4n(C)c3c2=O)cc1` here?
The Potency was inconclusive: 20.6 µM [rising, single point].

Which Potency does the source give for `Cc1nn(Cc2ccc(F)cc2)c(C)c1NC(=O)c1cc2ncc(Br)cn2n1` here?
The Potency was inconclusive: 9.2 µM [cytotoxic, partial curve].

Which Potency does the source give for `CC(=O)N1CCN(c2ccc(S(=O)(=O)N3CCOCC3)cc2[N+](=O)[O-])CC1` here?
Its Potency is “inactive”.

For `CCCCNC(=S)NNC(=O)c1cccnc1`, which Potency is on record?
Its Potency is inconclusive: 29.1 µM [rising, single point].

Which Potency does the source give for `COCCNC(=O)/C(C#N)=C1\N=C(N)c2ccccc21` here?
The Potency was inconclusive: 16.4 µM [cytotoxic, partial curve].

With `COc1ccc2nc(C)cc(Nc3cccc(C(=O)O)c3)c2c1` as the compound, how does the Potency read?
Its Potency is inconclusive: 18.4 µM [rising, single point].

Which Potency does the source give for `Cc1ccccc1NC(=O)Cn1cccc1` here?
Its Potency is “inactive”.

Which Potency does the source give for `O=C(Nc1ccc(S(=O)(=O)N2CCOCC2)cc1)c1ccc([N+](=O)[O-])o1` here?
The Potency was inconclusive: 29.1 µM [cytotoxic, single point].

With `Nc1ccc(N=Nc2ccccc2)c(N)n1` as the compound, how does the Potency read?
The Potency was inconclusive: 29.1 µM [cytotoxic, single point].

Which Potency does the source give for `COc1ccc(-c2nc(-c3ccc(Br)cc3)no2)c(OC)c1` here?
Its Potency is inconclusive: 16.4 µM [cytotoxic, partial curve, poor fit].

With `Cc1ccc(-n2c(SCC(=O)c3c(N)n(C4CC4)c(=O)[nH]c3=O)nnc2N2CCOCC2)cc1` as the compound, how does the Potency read?
The Potency was inconclusive: 18.4 µM [rising, single point].

Which Potency does the source give for `CCNc1ccc(C(=O)OCC)cc1NC(=O)c1cccc(S(=O)(=O)N2CCOCC2)c1` here?
The Potency was inconclusive: 14.6 µM [cytotoxic, partial curve, poor fit].

Which Potency does the source give for `Cc1ccc(N2CC(C(=O)Nc3nnc(SCC(=O)NCC4CCCO4)s3)CC2=O)cc1C` (stereo not drawn) here?
Its Potency is inconclusive: 29.1 µM [rising, single point].

— PubChem BioAssay AID1347076 (National Center for Advancing Translational Sciences (NCATS), 2019)
